From PMC3805583

Target: T1, C-terminally GST-tagged murine LOX-PP-WT (1-162 aa) (mouse) (UniProt P28301)
T1 sequence: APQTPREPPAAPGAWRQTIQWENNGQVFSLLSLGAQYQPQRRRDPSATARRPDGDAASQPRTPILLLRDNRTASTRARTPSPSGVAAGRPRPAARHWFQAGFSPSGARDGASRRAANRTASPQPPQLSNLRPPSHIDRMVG
Assay: pull-down; GST or LOX-PP-GST (WT, deletion or point mutants) co-expressed with tagged CIN85 or CD2AP in HEK293T cells; GST pull-down from extracts; WB for the tag, for GST or for endogenous CD2AP

binding: binds
Substance: FLAG-tagged CIN85 NT (3 SH3 domains) (rat) (domain or fragment)

These are yes or no findings as the source states them, for the method shown. In cells and extracts the contact can be indirect. Binding can be weak; no strength is given. Tags and fused reporters may be left off the sequences shown.
